Laboratory results: paper PMC12314576, “The Actin‐Binding Prolyl‐Isomerase Par17 Sustains Its Substrate Selectivity by Interdomain Allostery” (Proteins, 2025)
These are yes or no findings as the source states them, for the method shown. Some binding calls cover weakened binding; strength is not graded here.

Legend:
Experiment in all cases: peptide or protein array; 12-mers of β-actin (2 amino acids per step) SPOT-synthesised on cellulose membranes, blocked with 5% BSA in PBS, incubated overnight with Atto594-labeled Par14 or Par17, washed with PBS, fluorescence imaged; runs of three or more spots classified as possible binding sites; both purified
β-actin 12-mer, spot L8 = target: T1, β-actin 12-mer, spot L8
T1 sequence (peptide): TTMYPGIADRMQ

β-actin 12-mer, spot C7 = target: T2, β-actin 12-mer, spot C7
T2 sequence (peptide): GQVITIGNERFR

β-actin 12-mer, spot F9 = target: T3, β-actin 12-mer, spot F9
T3 sequence (peptide): APPERKYSVWIG

β-actin 12-mer, spot G7 = target: T4, β-actin 12-mer, spot G7
T4 sequence (peptide): ERFRCPEALFQP

β-actin 12-mer, spot J9 = target: T5, β-actin 12-mer, spot J9
T5 sequence (peptide): VWIGGSILASLS

β-actin 12-mer, spot P9 = target: T6, β-actin 12-mer, spot P9
T6 sequence (peptide): TFQQMWISKQEY

β-actin 12-mer, spot F4 = target: T7, β-actin 12-mer, spot F4
T7 sequence (peptide): AMYVAIQAVLSL

β-actin 12-mer, spot E4 = target: T8, β-actin 12-mer, spot E4
T8 sequence (peptide): TPAMYVAIQAVL

β-actin 12-mer, spot O9 = target: T9, β-actin 12-mer, spot O9
T9 sequence (peptide): LSTFQQMWISKQ

β-actin 12-mer, spot M8 = target: T10, β-actin 12-mer, spot M8
T10 sequence (peptide): MYPGIADRMQKE

β-actin 12-mer, spot B3 = target: T11, β-actin 12-mer, spot B3
T11 sequence (peptide): EKIWHHTFYNEL

β-actin 12-mer, spot R1 = target: T12, β-actin 12-mer, spot R1
T12 sequence (peptide): VGRPRHQGVMVG

β-actin 12-mer, spot D4 = target: T13, β-actin 12-mer, spot D4
T13 sequence (peptide): FNTPAMYVAIQA

β-actin 12-mer, spot H4 = target: T14, β-actin 12-mer, spot H4
T14 sequence (peptide): AIQAVLSLYASG

β-actin 12-mer, spot G4 = target: T15, β-actin 12-mer, spot G4
T15 sequence (peptide): YVAIQAVLSLYA

β-actin 12-mer, spot R5 = target: T16, β-actin 12-mer, spot R5
T16 sequence (peptide): ERGYSFTTTAER

β-actin 12-mer, spot E7 = target: T17, β-actin 12-mer, spot E7
T17 sequence (peptide): TIGNERFRCPEA

β-actin 12-mer, spot H9 = target: T18, β-actin 12-mer, spot H9
T18 sequence (peptide): RKYSVWIGGSIL

Measured: binding

Atto594-labeled Par17 (from UniProt Q9Y237-2 3-156) (enzyme)
binds: all assays above
